Source: ChEMBL document CHEMBL3988442, “University of Dundee, Small-Polar-MMV Screening Library” (2021).

Chains of the proteins cited; added tags and fusions are not shown.
UniProt E9BF75, entry or part of it: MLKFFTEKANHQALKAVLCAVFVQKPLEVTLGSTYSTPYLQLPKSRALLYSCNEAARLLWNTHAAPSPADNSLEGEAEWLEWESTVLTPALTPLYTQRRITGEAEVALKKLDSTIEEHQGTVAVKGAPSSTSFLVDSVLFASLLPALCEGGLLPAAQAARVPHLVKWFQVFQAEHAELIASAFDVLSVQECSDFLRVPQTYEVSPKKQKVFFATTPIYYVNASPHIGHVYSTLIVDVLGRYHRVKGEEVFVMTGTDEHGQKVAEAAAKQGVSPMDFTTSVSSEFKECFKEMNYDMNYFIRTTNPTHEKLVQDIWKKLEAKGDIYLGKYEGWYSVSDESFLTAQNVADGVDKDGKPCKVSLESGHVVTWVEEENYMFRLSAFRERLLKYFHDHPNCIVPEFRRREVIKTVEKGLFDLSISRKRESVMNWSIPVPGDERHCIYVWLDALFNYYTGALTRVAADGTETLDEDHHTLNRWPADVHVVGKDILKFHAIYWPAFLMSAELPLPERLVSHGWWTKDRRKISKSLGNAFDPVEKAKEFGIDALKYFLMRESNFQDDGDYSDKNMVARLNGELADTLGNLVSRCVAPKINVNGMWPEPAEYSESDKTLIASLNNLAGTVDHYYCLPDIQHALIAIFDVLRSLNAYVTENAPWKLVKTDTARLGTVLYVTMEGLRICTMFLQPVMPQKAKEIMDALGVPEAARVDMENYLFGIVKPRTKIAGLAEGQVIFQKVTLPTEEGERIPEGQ

All values are in %. The record does not define 0% and 100%; most values in the screen are far below 50% and negative numbers occur (in some assays of this library far below -100). The compounds are a random part of those screened. A dash means the value is not listed here; it may have been measured.

LdMetRS: 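Methionyl-tRNA synthetase (putative), Leishmania donovani (UniProt E9BF75). Primary screen of methionyl-tRNA synthetase; the read-out is not stated. The test concentration is not given. Values are per cent inhibition. Of about 68,000 compounds tested this way, about 24 (0.035%) reached 50% or more in at least one test.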
Mtb heat-shock: 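Assay on Mycobacterium tuberculosis, filed only as a heat shock assay from Cornell; the read-out is not stated. The concentration is filed as 10 mM, unlikely as a test dose, so the dose is not known. Direction is inferred from retests: higher values go with stronger inhibition. Size under these conditions: about 69,000 compounds, about 930 of them at 50% or above in at least one test.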

compound,LdMetRS,Mtb heat-shock
CS(=O)(=O)NCC1CCCN(C(=O)CCCc2ccccc2)C1 (centres unmarked),13.68,12.11
Cc1noc(C2CCC3(CCN(C(=O)c4ccn(C)n4)CC3)O2)n1 (centres unmarked),4.061,-32.01
CN1CCN(CC2CC2)C(=O)C12CCN(c1nccs1)CC2,14.86,-5.638
O=C(CN1CCOCS1(=O)=O)NCc1ccccc1,10.31,-21.01
CCCc1nc(C)c(CNc2nc(C)nc3onc(C)c23)s1,1.362,12.34
Cc1cc(N(C)C)nc(C2(C)CCCN2C(=O)c2ccccc2)n1 (centres unmarked),18.12,-6.268
COCc1ncn2c1CN(C(=O)Nc1cccc(OC)c1)CC2,5.077,-20.79
Cc1nn(C)cc1-c1cncn1CCc1ccc2c(c1)OCCO2,17.46,-
O=C(CCC(F)(F)F)NCC1CCCS1 (centres unmarked),2.484,26.57
Cc1cc(F)cc(NC(=O)N(C)CC(C)(CO)CO)c1,19.47,10.66
CCN(Cc1ccco1)C(=O)NCC(C)N1CCc2sccc2C1 (centres unmarked),16.02,11.42
CC[C@H]1CN(C(=O)C2CC2)CC[C@H]1CC(=O)NCCN1CCOCC1,15.38,-3.586
Cc1nc(CN2Cc3nccn3CC(CN3CCCC3)C2)cs1 (centres unmarked),14.29,-
CN1CCc2cc(C(=O)N(C)C)c(NCC3CC3)nc2CC1.O=C(O)C(F)(F)F.O=C(O)C(F)(F)F,-,-30.07
Cc1c(O)cccc1C(=O)N1CCCC2(C1)C(=O)N(C)c1ccccc12 (centres unmarked),10.08,-3.698
N#Cc1ccc(C(=O)N2CCOC[C@H](Oc3cnccn3)C2)cc1,12.03,-21.21
O=C(NCCN1CCOCC1)c1ccc(OCc2ccccc2)nc1,11.59,35.61
CC(Nc1cccc(CN2CCOC2=O)c1)C(=O)Nc1cccc(F)c1 (centres unmarked),19.7,13.91
COc1ccc(N2CCNC(C(N)=O)C2)cc1 (centres unmarked),8.571,-24.68
CN(C(=O)c1cccc(NCC(=O)O)c1)C(C1CC1)C1CC1,18.54,9.228
CC(C)c1nc2n(n1)CC(NCc1nc(-c3cccnc3)no1)CC2 (centres unmarked),6.25,-23.18
O=C(c1cccnc1O)N1CCC(COc2ccccc2)CC1,10.21,22.58
O=C([C@H]1C[C@H]2OCC[C@H]2N(CC2CCOCC2)C1)N1CCCCO1,10.95,-
c1ccc(COCCN2CCc3[nH]cnc3C2c2ccco2)cc1 (centres unmarked),13.75,-7.071
CC(c1ccc(C(F)(F)F)cc1)N1CCN(CCS(C)(=O)=O)CC1 (centres unmarked),19.73,-17.27
CC[C@H](C)[C@H](NC(=O)Cc1csc(-c2cccc(Cl)c2)n1)C(=O)O,12.86,20.31
Cc1cc(C(=O)NCC(C)N2CCc3ccccc32)no1 (centres unmarked),12.2,30.66
O=C(O)C(F)(F)F.O=C(O)C(F)(F)F.O=C(O)C(F)(F)F.c1c[nH]c(CN2CCC3(CC2)COCCN(CCN2CCCC2)C3)c1,-,-2.852
CCOC(=O)N1CCN(c2nc(N)c3ccccc3n2)CC1,12.73,-
Cc1cc(CNC(=O)CCc2ccc(S(N)(=O)=O)cc2)no1,9.943,1.333
COc1ccc2c(c1)C1(CCN(Cc3cnn(C)c3)CC1)N(C)CC2,8.219,-
Cl.O=C1NC2(CCNCC2)CC1c1ccccc1 (centres unmarked),-,-19.86
Cc1cc(CN2CC[C@H]3C[C@H](C(=O)N(C)C)O[C@@H]3C2)no1,8.155,-
CC(C)CC(=O)N1CC[C@H]2N(C)CC[C@@]2(C(=O)Nc2cccnc2)CC1,11.95,-
NC(=O)CN1CCCN(C(=O)c2ccn(-c3cccc(F)c3)n2)CC1,18.58,11.16
Cc1nnc2n1CCN(Cc1ccc3c(c1)OCCO3)C2,17.46,-7.234
CCc1c(C(=O)N2C[C@H]3CC[C@@H]2CN(c2cnccn2)C3)csc1C,13.36,-
Cc1nn(C)c(N(C)C)c1CNC(C)COc1ccc(F)cc1 (centres unmarked),12.5,6.698
CCc1ccc(S(=O)(=O)N2CCCC(c3ncc[nH]3)C2)s1 (centres unmarked),1.299,-18.25
COc1ccc(C(=O)Nc2ccc3ncn(C(C)C)c(=O)c3c2)cc1,11.21,15.42
Cc1ccc(N2CC3(CCN(c4nccs4)C3)C2)nn1,17.5,-35.41
CNc1cc(C)nc(N2C[C@H](C3CC3)[C@@H](N)C2)n1,-,9.302
OC(CNCc1nnc2ccccn12)c1ccc2c(c1)OCO2 (centres unmarked),15.72,16.09
Cc1cc(C)n(C2CCCN(C(=O)CCNS(C)(=O)=O)C2)n1 (centres unmarked),9.722,-10.86
[H][C@@]12CCN(c3cnccn3)C[C@@]1(C(=O)O)CCCN2Cc1cccnc1,-,-18.02
Cc1ncsc1C(=O)N1CCC(O)(Cn2c(C)cc3ccncc32)CC1,20,-8.028
CC(c1ccc(F)cc1F)N1CCN(Cc2nccn2C)CC1 (centres unmarked),13.86,-14.86
CN1CCN(Cc2cnc3n2CCN(C(=O)c2cscn2)C3)CC1,20.63,6.133
CC(=O)N1CCC(N2CCOC(CC3CCCCC3)C2)CC1 (centres unmarked),13.87,16.48
CC(=O)c1ccc(N2CCCC(CO)(Cc3ccccc3F)C2)nc1 (centres unmarked),3.344,-29.67
CCNC(=O)[C@@H]1C[C@@H](N)CN1C(=O)C1(c2ccc(OC)cc2)CCCC1,19.47,17.71
O=C(NCCNc1cnccn1)N1CCN(Cc2cccnc2)CC1,13.89,-20.53
CN(C)CCN1CCCC12CCN(C(=O)c1cccnc1)CC2,4.377,-
CCc1ccc2c(c1)C(CCNC(=O)c1sccc1C)C(=O)N2 (centres unmarked),10.07,12.03
CCc1nc(-c2ccc(NC(=O)N3CCC4(CC3)OCCO4)cc2)no1,16.91,-20.76
CCCn1nc(C)c(-c2cncn2CCN(C)C2CCCC2)c1C,6.032,-
[H][C@@]12CCN(C(=O)c3cscn3)C[C@@]1([H])O[C@H](c1ccncn1)C2,-,-4.626
O=C(CCS(=O)(=O)c1ccccc1)N1CCCC(n2cccn2)C1 (centres unmarked),16.39,-18.93

Some entries from above, unchanged:

compound	LdMetRS	Mtb heat-shock
Cc1cc(CNC(=O)CCc2ccc(S(N)(=O)=O)cc2)no1	9.943	1.333
COCc1ncn2c1CN(C(=O)Nc1cccc(OC)c1)CC2	5.077	-20.79
Cc1nn(C)c(N(C)C)c1CNC(C)COc1ccc(F)cc1 (centres unmarked)	12.5	6.698
O=C(c1cccnc1O)N1CCC(COc2ccccc2)CC1	10.21	22.58
CC(C)c1nc2n(n1)CC(NCc1nc(-c3cccnc3)no1)CC2 (centres unmarked)	6.25	-23.18